US20040180811A1
No constants are given. Whether binding was seen depends on the method and setting. For part of these data: In cells and extracts the contact can be indirect. Some entries that bind do so weakly or less than the wild type.

Sequences of proteins named here, by UniProt entry; tags and fusion partners are left off. A change or cut given only in a name is not applied to a line headed by its entry. Residues count along the entry.
UniProt P61586: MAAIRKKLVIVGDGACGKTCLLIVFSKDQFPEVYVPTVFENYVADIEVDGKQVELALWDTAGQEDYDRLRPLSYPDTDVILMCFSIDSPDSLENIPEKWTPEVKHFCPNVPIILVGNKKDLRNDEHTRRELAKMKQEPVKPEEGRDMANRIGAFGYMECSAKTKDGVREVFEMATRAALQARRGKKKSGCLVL
UniProt Q6WCQ1: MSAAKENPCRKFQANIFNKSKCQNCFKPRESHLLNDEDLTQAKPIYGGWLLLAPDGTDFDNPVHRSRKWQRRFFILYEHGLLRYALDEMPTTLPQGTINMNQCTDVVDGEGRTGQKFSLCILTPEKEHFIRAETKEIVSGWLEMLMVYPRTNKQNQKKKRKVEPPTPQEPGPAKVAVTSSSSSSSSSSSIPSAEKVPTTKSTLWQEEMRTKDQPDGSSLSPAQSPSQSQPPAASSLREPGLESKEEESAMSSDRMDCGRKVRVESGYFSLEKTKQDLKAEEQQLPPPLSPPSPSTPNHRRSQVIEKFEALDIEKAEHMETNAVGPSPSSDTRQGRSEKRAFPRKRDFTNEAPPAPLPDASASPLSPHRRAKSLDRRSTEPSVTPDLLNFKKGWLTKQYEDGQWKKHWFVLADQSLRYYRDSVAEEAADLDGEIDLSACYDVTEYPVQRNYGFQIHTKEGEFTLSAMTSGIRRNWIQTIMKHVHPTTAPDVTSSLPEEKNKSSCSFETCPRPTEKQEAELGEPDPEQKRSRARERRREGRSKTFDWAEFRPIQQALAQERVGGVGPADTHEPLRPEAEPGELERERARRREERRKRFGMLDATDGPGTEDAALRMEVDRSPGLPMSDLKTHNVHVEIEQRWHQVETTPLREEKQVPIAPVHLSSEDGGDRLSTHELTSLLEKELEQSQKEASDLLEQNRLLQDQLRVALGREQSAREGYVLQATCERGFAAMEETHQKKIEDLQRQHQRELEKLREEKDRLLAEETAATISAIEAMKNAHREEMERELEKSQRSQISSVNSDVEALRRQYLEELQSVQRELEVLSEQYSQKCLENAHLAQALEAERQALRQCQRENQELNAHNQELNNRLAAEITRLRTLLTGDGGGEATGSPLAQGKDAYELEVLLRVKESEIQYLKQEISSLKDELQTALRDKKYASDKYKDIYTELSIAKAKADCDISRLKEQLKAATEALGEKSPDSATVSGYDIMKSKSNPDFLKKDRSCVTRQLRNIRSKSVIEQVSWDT
UniProt O14974: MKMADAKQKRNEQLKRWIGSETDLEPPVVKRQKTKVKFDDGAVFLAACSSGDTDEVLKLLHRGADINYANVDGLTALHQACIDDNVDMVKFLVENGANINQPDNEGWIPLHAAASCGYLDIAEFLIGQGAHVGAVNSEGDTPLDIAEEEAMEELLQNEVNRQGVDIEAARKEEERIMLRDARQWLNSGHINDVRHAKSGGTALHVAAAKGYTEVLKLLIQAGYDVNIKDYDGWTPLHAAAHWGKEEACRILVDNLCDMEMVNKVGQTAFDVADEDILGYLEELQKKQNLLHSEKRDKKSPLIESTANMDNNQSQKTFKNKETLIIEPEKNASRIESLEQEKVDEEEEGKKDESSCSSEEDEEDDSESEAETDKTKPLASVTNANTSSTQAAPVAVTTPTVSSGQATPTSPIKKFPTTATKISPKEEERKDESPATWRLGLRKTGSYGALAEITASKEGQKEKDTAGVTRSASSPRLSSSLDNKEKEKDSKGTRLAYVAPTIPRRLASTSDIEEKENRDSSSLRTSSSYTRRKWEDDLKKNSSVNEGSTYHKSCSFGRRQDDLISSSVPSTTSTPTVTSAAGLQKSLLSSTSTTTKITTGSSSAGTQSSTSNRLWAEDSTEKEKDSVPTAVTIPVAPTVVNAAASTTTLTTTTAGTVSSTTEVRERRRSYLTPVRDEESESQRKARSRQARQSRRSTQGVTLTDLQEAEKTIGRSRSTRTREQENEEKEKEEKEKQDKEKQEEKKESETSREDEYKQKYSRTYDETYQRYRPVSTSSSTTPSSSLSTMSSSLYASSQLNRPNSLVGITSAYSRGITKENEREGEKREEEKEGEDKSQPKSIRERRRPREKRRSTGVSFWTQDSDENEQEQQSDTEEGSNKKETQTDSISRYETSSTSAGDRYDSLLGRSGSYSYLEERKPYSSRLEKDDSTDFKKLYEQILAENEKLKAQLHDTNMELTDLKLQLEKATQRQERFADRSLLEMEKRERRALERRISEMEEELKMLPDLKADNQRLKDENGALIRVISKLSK
UniProt Q8C6B2, residues 1-99: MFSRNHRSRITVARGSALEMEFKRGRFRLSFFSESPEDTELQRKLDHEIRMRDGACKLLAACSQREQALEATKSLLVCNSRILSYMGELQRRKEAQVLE

Tests used:
[1] = molecular target: 6×his RhoA loaded with GDPβS (UniProt P61586); assay: purified protein interaction, GST fusions on glutathione-agarose beads, anti-RhoA immunoblot
[2] = molecular target: 6×his RhoA loaded with GTPγS (UniProt P61586); assay: as above
[3] = molecular target: Full-length M-RIP with an amino-terminal Flag tag (human) (UniProt Q6WCQ1); assay: GST pull-down from COS-7 lysate overexpressing Flag-M-RIP, anti-Flag immunoblot
[4] = molecular target: Full-length M-RIP with an amino-terminal Flag tag (human) (UniProt Q6WCQ1); assay: 6×his RhoA incubated with COS1 lysate containing Flag M-RIP, Ni-NTA precipitation, anti-Flag immunoblot
[5] = molecular target: GFP-MBS (full-length human MBS fused to GFP) (human) (UniProt O14974); assay: GST pull-down from lysate of transfected COS1 cells, anti-MBS immunoblot
[6] = molecular target: Myosin binding subunit (MBS) of myosin phosphatase, endogenous in human vascular smooth muscle cells (human) (UniProt O14974); assay: GST pull-down from vascular smooth muscle cell lysate, anti-MBS immunoblot
[7] = molecular target: GST-M-RIP545-823 (M-RIP RhoA-binding domain) (human) (UniProt Q6WCQ1); assay: GST pull-down from lysate of COS1 cells transfected with Flag-RhoA, anti-Flag immunoblot
[8] = molecular target: GST-M-RIP545-878 (RhoA-binding domain plus the remaining carboxy-terminus of CC2) (human) (UniProt Q6WCQ1); assay: as above

In the case of “GST-M-RIP545-823 (M-RIP RhoA-binding domain) (from UniProt Q6WCQ1 546-824)”, the binding [1] is reported as “binds” and the binding [2] is reported as “binds”.
“GST-MBSLZ (amino acids 847-1030 of MBS, includes the leucine zipper domain) (from UniProt O14974 847-1030)” was tested, and the binding [3] was “binds”.
For “6×his RhoA loaded with GTPγS (from UniProt P61586 1-193) (enzyme)”, the binding [4] was “binds”.
In the case of “GST-Rhotekin Rho-binding domain (amino acids 1-99 of mouse Rhotekin) (from UniProt Q8C6B2 1-99)”, the binding [2] is reported as “binds”.
“6×his RhoA loaded with GDPβS (from UniProt P61586 1-193) (enzyme)” was tested, and the binding [4] was “binds”.
In the case of “GST-M-RIP545-878 (RhoA-binding domain plus the remaining carboxy-terminus of CC2) (from UniProt Q6WCQ1 546-879)”, the binding [5] is reported as “binds”, the binding [6] is reported as “binds” and the binding [1] is reported as “binds”. For the same substance, the binding [2] was “binds”.
“Flag-RhoA (wild-type) expressed in COS1 cells (from UniProt P61586 1-193) (enzyme)” was tested, and the binding [7] was “binds” and the binding [8] was “binds”.
